Measured values from paper PMC9566910.
These are yes or no findings as the source states them, for the method shown. In cells and extracts the contact can be indirect. Some binding calls cover weakened binding; strength is not graded here.

Target: T1, IL receptor 20 subunit β (IL-20RB) (not stated (human or mouse cDNA cloned)) (UniProt Q6UXL0)
T1 sequence: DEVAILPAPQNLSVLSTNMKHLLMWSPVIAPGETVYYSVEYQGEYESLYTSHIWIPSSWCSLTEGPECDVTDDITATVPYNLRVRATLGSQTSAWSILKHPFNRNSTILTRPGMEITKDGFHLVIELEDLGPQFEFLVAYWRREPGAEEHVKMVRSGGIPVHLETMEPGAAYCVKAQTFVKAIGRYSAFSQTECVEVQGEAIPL
Assay: co-IP; cell lysate supernatant incubated with control IgG or primary antibody overnight in IP buffer (150 mM NaCl, 20 mM HEPES pH 7.4, 1% Triton X-100), protein A/G beads 2 h at 4°C, Western blotting; with the antibody LTMA1G11 as blocker; the set-up of Supplemental Figure 9C itself is not shown

B1: IL-19 (ligand, UniProt Q9UHD0 25-177)
chain: LRRCLISTDMHHIEESFQEIKRAIQAKDTFPNVTILSTLETLQIIKPLDVCCVTKNLLAFYVDRVFKDHQEPNPKILRKISSIANSFLYMQKTLRQCQEQRQCHCRQEATNATRVIHDNYDQLEVHAAAIKSLGELDVFLAWINKNHEVMFSA
binding: binds
